Results from patent publication US20110294722A1, “ANTIMICROBIAL PEPTIDES” (priority 2008, published 2011).
Part of at least one peptide drawing is inferred or uncertain, most often the ends. No end group written: not given here.

Experiments:
[1] = test system: Pseudomonas syringae pv. tomato; format: cell-based; details: at least 4 days of incubation
Description: In-vitro inhibition assays were performed in sterile flat-bottom 96-well plates (Greiner bio-one, Frickenhausen). Antimicrobial peptides were dissolved in 0.01% acetic acid containing 0.2% BSA (500 μg/ml), filter sterilized and stored at −20° C. For inhibition assays dilutions of peptides ranging from 5 to 200 μg/ml were prepared and 10 μl (antibacterial assay) or 20 (antifungal assay) of each concentration was loaded per well.
Bacteria colonies from overnight agar plate cultures were resuspended into 5 ml LB-medium or HPG-medium (OD600 nm=0.08-0.1) and diluted into LB-medium/HPG-medium (1:100). 90 μl of this suspension containing about 10^5-10^6 CFU/ml of tested bacteria were added to each well resulting in final peptide concentrations of 0, 0.5, 1, 2, 5, 10, and 20 μg/ml. […] The lowest concentration, in which there is no observable growth (>90% inhibition) is referred to as minimal inhibitory concentration (MIC). […] For each peptide concentration two identical inhibition assays were performed.

[2] = test system: plasmid DNA (2.5 kB fragment of pDONR221 vector); assay: DNA binding, gel retardation experiments; details: 100 ng or 200 ng plasmid DNA, room temperature 1 h, FIG. 4
[3] = Black lipid membrane conductance measurements; details: 1 μg/ml SP1, 1M KCl, 10 mM HEPES, pH7, cis-side, DiPhPC/PS membrane, FIG. 5B

RKKKFKIFKRLF-NH2 [SP1-14]
LC (lethal concentration, 100% inhibition) [1]: 5.0 µg/mL

RKKRLKLLKRLL-NH2 [SP1-1]
Binding to DNA (gel retardation) [2]: showed binding to the DNA in a concentration dependent manner

RKKRLKLLKRLV-NH2 [SP1]
Binding to DNA (gel retardation) [2]: showed binding to the DNA in a concentration dependent manner | Conductance curve of black lipid membrane [3]: Spontaneous fluctuations of conductance appear
